Results are given in words; binding and its absence hold for the method and conditions named. In cells and extracts the contact can be indirect. Here binding means that the protein was enriched with, or labelled near, the bait; the list need not be complete.
Target: Flag-METTL3 (human) (UniProt Q86U44)
Assay: affinity purification with mass spectrometry; U87-MG cells infected with lentivirus encoding Flag-METTL3 for 36 h, 25 uM MG132 for 6 h; Flag immunoprecipitation, SDS-PAGE, Coomassie staining, LC-MS/MS of gel segments

Amino acid sequences for entries named in this document (tags omitted).
UniProt Q86U44: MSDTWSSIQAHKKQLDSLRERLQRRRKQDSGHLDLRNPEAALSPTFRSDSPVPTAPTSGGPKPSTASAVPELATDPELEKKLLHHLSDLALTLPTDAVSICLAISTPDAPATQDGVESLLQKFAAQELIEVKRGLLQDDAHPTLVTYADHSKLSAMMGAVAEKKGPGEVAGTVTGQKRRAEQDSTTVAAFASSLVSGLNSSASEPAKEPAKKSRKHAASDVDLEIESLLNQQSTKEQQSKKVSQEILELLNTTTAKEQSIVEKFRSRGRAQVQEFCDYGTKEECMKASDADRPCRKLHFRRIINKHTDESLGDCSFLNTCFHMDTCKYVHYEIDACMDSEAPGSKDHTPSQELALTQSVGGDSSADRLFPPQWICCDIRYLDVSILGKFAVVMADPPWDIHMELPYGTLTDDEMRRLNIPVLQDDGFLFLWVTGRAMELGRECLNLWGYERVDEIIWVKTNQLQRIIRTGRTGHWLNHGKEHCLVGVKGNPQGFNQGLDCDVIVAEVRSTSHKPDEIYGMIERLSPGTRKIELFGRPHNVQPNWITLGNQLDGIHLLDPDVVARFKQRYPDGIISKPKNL
UniProt Q9UHP3: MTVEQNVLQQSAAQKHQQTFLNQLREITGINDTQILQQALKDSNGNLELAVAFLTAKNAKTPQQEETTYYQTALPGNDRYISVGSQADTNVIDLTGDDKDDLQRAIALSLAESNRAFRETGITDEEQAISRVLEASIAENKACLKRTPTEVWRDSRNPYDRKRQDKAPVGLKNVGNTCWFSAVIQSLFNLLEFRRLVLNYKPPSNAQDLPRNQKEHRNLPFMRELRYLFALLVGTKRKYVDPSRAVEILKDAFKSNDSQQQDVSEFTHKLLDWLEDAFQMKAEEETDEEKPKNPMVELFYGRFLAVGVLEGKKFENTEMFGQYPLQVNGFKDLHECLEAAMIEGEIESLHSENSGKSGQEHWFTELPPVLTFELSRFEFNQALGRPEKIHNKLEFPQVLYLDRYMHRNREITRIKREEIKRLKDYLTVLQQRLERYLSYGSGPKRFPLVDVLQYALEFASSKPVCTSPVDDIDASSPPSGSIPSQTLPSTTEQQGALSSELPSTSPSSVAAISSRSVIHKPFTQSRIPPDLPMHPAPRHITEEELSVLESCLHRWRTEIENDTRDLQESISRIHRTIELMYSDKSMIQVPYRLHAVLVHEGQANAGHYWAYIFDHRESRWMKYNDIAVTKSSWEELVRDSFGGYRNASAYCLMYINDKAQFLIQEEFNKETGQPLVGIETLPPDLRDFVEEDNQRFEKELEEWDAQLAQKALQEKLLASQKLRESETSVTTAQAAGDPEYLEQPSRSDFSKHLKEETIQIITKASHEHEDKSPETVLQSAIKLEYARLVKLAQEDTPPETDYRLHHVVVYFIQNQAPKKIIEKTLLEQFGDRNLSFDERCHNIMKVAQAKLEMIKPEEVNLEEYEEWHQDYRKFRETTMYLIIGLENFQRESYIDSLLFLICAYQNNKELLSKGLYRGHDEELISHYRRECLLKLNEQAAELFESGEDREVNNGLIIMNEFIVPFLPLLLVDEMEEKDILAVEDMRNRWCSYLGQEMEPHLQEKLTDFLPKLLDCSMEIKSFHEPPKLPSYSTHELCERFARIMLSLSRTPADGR

binding: binds
Substance: USP25 (endogenous) (from UniProt Q9UHP3 1-1055) (enzyme)

From article PMC12661985, “USP25 deubiquitinates cytosolic METTL3 to impede glioma proliferation via an m6A-independent pathway” (iScience, 2025)
